# Source: the supplement of paper PMC12823440, “Inhibitors supercharge kinase turnover through native proteolytic circuits” (Nature, 2025)
# Chains of the proteins cited; added tags and fusions are not shown. Lines headed by an entry give the natural chain unless they say otherwise; changes in a name come on top.
# UniProt P29597: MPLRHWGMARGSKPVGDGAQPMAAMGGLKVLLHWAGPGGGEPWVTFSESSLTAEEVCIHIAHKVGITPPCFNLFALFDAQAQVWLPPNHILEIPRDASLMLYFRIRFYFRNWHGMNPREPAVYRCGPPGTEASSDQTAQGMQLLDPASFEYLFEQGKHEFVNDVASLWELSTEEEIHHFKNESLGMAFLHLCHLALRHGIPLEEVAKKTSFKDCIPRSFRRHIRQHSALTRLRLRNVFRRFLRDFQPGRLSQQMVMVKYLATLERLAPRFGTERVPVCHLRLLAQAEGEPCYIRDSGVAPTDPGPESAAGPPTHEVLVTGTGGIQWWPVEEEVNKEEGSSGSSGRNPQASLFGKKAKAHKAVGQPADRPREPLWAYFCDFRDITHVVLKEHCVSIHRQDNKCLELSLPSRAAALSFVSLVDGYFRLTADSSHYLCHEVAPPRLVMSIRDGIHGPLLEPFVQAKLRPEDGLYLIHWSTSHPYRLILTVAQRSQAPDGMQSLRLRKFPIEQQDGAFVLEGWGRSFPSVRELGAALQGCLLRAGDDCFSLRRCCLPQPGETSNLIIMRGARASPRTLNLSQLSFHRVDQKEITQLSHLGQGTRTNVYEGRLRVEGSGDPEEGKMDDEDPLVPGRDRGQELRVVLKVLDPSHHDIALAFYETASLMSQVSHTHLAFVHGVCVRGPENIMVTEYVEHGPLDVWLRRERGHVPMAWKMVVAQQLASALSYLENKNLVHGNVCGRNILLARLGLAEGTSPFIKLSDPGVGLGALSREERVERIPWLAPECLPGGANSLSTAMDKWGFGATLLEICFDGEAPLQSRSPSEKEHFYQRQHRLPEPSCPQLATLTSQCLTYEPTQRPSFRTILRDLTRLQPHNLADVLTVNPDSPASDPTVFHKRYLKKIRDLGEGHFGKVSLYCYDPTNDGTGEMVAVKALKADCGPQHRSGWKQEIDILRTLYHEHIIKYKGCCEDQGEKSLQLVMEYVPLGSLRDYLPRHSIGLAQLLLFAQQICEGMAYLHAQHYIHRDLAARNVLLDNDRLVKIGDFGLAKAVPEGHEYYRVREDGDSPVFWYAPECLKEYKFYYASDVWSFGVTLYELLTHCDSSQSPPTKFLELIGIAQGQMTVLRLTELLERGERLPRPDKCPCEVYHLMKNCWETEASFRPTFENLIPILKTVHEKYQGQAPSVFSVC
# UniProt P07947, whole entry, looked up: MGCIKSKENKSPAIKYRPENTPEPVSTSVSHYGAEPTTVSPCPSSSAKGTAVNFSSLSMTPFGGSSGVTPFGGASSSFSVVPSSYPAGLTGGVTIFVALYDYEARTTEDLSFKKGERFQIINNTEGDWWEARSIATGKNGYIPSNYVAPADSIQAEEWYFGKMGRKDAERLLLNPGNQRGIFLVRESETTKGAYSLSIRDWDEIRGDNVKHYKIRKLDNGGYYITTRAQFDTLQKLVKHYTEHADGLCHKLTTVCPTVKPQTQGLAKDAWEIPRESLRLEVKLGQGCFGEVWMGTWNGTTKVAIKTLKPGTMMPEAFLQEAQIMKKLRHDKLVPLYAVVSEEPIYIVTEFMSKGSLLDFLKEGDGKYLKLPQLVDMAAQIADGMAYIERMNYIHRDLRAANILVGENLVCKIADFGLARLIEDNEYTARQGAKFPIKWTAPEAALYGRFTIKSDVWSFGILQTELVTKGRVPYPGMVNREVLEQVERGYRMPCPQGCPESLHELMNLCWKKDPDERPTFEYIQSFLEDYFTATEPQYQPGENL
# UniProt P00519, whole entry: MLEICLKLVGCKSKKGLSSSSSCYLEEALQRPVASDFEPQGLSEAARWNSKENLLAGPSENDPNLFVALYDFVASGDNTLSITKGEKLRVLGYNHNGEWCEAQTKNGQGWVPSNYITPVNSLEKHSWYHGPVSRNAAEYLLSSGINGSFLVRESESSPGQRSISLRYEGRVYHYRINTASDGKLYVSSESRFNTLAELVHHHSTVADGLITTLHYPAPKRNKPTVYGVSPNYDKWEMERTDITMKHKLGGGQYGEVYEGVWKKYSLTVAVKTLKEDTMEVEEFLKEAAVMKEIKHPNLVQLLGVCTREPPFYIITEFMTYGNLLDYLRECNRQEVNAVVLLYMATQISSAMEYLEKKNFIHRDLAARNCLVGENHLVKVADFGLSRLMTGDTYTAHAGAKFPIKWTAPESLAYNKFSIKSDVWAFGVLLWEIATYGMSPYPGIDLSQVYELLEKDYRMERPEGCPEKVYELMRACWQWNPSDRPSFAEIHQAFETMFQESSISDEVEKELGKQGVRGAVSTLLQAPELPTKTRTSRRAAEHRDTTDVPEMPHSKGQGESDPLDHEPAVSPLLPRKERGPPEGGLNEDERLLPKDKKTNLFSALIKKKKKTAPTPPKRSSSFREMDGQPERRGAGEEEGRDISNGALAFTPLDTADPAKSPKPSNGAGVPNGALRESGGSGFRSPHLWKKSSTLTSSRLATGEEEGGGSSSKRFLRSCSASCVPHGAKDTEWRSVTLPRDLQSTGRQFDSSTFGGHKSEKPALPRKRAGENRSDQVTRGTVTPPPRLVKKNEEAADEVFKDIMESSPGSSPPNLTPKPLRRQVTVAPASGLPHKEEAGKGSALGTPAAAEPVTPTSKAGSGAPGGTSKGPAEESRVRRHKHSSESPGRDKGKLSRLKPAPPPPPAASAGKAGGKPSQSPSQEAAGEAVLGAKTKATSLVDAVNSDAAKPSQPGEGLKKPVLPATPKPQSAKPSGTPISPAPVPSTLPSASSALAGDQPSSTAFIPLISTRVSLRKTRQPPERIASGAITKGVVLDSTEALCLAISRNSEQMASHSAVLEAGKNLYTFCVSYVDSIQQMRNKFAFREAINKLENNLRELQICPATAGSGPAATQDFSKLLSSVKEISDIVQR
# UniProt P31749: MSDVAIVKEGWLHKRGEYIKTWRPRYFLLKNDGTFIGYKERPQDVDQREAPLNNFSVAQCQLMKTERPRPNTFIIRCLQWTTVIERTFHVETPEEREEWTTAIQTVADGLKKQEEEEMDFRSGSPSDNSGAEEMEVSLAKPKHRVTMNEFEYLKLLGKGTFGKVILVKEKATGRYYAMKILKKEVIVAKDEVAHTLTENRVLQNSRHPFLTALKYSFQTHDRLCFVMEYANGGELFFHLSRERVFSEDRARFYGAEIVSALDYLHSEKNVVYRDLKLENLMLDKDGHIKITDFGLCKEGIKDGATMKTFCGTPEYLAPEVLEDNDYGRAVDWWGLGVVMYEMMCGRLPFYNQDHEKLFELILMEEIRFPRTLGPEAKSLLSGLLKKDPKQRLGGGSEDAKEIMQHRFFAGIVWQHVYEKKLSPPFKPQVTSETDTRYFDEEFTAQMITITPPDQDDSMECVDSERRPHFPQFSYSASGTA
# UniProt Q9UM73: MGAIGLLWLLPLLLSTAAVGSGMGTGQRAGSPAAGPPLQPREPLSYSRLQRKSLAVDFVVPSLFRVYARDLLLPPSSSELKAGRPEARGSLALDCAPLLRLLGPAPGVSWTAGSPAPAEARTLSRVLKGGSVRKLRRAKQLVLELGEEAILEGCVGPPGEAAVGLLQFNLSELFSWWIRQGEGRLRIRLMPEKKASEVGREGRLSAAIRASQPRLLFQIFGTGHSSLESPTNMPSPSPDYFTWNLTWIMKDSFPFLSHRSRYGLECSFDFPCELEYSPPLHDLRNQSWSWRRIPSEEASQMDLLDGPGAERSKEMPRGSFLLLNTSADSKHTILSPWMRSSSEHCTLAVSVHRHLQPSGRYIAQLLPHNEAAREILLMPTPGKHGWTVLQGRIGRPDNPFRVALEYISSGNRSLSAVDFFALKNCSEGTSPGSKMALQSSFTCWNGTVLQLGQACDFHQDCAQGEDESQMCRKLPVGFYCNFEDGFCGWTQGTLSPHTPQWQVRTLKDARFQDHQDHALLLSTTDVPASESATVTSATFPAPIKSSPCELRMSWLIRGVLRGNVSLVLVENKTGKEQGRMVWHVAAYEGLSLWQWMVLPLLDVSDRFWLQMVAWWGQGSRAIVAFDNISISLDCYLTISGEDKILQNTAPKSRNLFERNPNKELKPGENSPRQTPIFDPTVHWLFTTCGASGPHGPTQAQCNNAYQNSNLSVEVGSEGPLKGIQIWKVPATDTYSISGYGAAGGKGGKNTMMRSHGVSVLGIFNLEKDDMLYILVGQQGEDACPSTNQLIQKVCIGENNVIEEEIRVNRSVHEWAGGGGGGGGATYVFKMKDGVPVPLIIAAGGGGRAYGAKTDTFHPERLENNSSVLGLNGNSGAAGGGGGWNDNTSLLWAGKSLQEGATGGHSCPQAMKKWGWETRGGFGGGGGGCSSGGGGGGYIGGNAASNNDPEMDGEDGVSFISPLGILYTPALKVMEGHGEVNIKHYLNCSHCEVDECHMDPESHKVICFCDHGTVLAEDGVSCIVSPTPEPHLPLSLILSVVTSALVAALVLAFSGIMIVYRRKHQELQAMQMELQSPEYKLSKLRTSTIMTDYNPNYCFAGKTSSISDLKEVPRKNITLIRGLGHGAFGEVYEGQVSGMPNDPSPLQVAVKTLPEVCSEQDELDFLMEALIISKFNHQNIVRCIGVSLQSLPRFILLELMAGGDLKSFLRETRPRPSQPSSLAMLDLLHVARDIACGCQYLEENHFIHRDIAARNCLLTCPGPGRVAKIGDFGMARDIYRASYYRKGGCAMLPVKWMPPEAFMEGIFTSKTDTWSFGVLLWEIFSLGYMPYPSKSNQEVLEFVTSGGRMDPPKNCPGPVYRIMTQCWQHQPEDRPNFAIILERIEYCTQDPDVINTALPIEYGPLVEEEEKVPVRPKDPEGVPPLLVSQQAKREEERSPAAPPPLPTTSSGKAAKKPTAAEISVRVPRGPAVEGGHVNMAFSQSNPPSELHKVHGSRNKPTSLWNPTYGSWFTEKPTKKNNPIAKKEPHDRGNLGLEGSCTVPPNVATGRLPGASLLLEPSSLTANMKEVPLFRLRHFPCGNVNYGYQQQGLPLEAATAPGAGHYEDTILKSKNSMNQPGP
# UniProt Q9UQB9: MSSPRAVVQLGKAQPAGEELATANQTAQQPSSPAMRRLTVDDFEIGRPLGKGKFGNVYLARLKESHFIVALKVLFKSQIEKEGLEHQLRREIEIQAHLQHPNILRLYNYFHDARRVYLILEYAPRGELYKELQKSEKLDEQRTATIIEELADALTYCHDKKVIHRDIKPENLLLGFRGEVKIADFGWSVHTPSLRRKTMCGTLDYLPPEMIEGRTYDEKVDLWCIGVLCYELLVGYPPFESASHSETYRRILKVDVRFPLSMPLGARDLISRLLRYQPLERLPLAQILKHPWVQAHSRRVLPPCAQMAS
# UniProt P51451: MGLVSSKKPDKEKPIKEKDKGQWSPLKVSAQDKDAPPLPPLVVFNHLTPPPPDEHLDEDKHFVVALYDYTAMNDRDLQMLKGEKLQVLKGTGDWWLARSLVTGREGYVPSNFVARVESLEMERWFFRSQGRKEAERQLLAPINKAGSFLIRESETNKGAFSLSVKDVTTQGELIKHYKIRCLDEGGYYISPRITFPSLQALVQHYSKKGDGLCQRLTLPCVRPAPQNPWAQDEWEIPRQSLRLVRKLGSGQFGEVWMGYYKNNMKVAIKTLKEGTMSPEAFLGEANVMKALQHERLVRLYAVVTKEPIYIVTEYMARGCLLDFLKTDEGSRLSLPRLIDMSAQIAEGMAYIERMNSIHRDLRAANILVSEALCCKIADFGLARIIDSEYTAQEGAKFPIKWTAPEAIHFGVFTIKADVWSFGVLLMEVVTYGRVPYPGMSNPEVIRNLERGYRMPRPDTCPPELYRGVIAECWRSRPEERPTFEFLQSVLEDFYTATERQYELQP
# UniProt P15056, whole entry, looked up: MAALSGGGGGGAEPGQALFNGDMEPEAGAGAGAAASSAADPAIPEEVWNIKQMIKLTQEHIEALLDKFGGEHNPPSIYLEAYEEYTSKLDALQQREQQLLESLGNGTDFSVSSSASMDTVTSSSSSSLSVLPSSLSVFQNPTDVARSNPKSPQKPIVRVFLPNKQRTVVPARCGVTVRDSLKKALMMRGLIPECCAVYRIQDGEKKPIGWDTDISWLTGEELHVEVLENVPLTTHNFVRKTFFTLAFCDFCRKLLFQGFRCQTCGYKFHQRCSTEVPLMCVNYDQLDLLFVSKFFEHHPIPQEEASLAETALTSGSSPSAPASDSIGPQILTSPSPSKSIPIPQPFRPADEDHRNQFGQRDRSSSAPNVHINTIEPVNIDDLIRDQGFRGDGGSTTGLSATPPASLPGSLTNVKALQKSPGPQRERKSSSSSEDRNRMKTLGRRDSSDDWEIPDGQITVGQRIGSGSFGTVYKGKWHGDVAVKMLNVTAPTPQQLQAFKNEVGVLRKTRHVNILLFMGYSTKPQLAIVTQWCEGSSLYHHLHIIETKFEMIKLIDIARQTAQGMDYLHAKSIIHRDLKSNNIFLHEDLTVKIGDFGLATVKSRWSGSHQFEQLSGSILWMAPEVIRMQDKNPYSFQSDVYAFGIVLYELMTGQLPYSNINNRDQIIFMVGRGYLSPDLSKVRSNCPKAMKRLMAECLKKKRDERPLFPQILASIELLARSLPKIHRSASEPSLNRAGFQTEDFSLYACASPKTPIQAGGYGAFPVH
# The other results are listed elsewhere or left out. The calls rarely recur for the same compound in another form.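 In K562 cells expressing nanoluciferase-fused kinases, luminescence was recorded at 4 h intervals between 2 and 18 h, normalized as percent of control with DMSO at 100% and a positive control at 0%. A significant (2 sigma) signal drop marks a time point as decreased. The authors' rule for a hit is not shown and takes in more than the number of time points.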
# What was measured:
# Conditions in all cases: K562; 2-18 h
# STK38 = STK38 (UniProt Q15208); test: kinase-Nluc reporter destabilization hit call (1 = scored as downregulated) (binary); higher = compound decreases kinase abundance
# SYK = SYK (UniProt P43405); test: as above
# TEC = TEC (UniProt P42680); test: as above
# TYK2 = TYK2 (UniProt P29597); test: as above
# ULK3 = ULK3 (UniProt Q6PHR2); test: as above
# YES1 = YES1 (UniProt P07947); test: as above
# ZAK = ZAK (UniProt Q9NYL2); test: as above
# ZAP70 = ZAP70 (UniProt P43403); test: as above
# ABL1 = ABL1 (UniProt P00519); test: number of time points (of 5) at which kinase-Nluc abundance scored as decreased, DMSO-normalised (count); higher = more persistent destabilization
# AKT1 = AKT1 (UniProt P31749); test: as above
# ALK = ALK (UniProt Q9UM73); test: as above
# ARAF = ARAF (UniProt P10398); test: as above
# AURKA = AURKA (UniProt O14965); test: as above
# AURKB = AURKB (UniProt Q96GD4); test: as above
# AURKC = AURKC (UniProt Q9UQB9); test: as above
# BLK = BLK (UniProt P51451); test: as above
# BMX = BMX (UniProt P51813); test: as above
# BRAF = BRAF (UniProt P15056); test: as above
# BRAF_V600E = test: as above
# BTK = BTK (UniProt Q06187); test: as above
SMILES,kinase-Nluc reporter destabilization hit call (STK38),kinase-Nluc reporter destabilization hit call (SYK),kinase-Nluc reporter destabilization hit call (TEC),kinase-Nluc reporter destabilization hit call (TYK2),kinase-Nluc reporter destabilization hit call (ULK3),kinase-Nluc reporter destabilization hit call (YES1),kinase-Nluc reporter destabilization hit call (ZAK),kinase-Nluc reporter destabilization hit call (ZAP70),number of time points (ABL1),number of time points (AKT1),number of time points (ALK),number of time points (ARAF),number of time points (AURKA),number of time points (AURKB),number of time points (AURKC),number of time points (BLK),number of time points (BMX),number of time points (BRAF),number of time points (BRAF_V600E),number of time points (BTK)
O=C(Nc1ccc(F)cc1F)[C@H](NC(=S)Nc1cc(C(F)(F)F)cc(C(F)(F)F)c1)c1ccccc1 (2.5 µM),inactive: 0,inactive: 0,inactive: 0,inactive: 0,inactive: 0,inactive: 0,inactive: 0,inactive: 0,0,0,0,0,0,0,0,0,0,0,0,0
CC(=NNC(=O)c1ccc(C)c(Br)c1)c1ccc(O)cc1O [mTOR inhibitor-1] (2.5 µM),inactive: 0,inactive: 0,inactive: 0,inactive: 0,inactive: 0,inactive: 0,inactive: 0,inactive: 0,0,0,0,0,0,0,0,0,1,0,1,0
Cn1cc(Nc2nccc(N3C[C@H]4CC[C@@H](C3)N4C(=O)[C@@H]3CC3(F)F)n2)cn1 (10 µM),inactive: 0,inactive: 0,inactive: 0,inactive: 0,inactive: 0,inactive: 0,inactive: 0,inactive: 0,0,0,0,0,0,0,0,0,0,0,0,0
C=CC(=O)Nc1cc2c(Nc3ccc(OCc4ccccn4)c(Cl)c3)ncnc2cc1OCCN1CCOCC1 (10 µM),inactive: 0,inactive: 0,inactive: 0,inactive: 0,inactive: 0,inactive: 0,inactive: 0,inactive: 0,0,0,0,0,0,0,0,0,2,0,0,0
CC(c1ccc(-c2cnc3c(-c4ccc(S(N)(=O)=O)c5ccccc45)cnn3c2)cc1)N1CCCC1 (stereo not given) (2.5 µM),inactive: 0,inactive: 0,inactive: 0,inactive: 0,inactive: 0,inactive: 0,inactive: 0,inactive: 0,0,0,0,0,0,0,0,0,0,0,0,0
COc1ccc(C(=C2C(=O)Nc3ccccc32)c2ccc(OC)cc2)cc1 (10 µM),inactive: 0,inactive: 0,inactive: 0,inactive: 0,inactive: 0,inactive: 0,inactive: 0,inactive: 0,0,0,0,0,0,0,0,0,0,0,0,0
C[C@@H]1C(=O)O[C@H](C)[C@H]1C[C@@H](O)[C@](C)(O)[C@H]1CC[C@@]2(O)C3=CC(=O)[C@@H]4C[C@@H](O)[C@@H](O)C[C@]4(C)[C@H]3CC[C@]12C [Cyasterone] (10 µM),inactive: 0,inactive: 0,inactive: 0,inactive: 0,inactive: 0,inactive: 0,inactive: 0,inactive: 0,0,0,0,0,0,0,0,0,0,0,0,0
COc1ccc([C@@H]2CC(=O)c3c(O)cc(O)cc3O2)cc1O [Hesperetin] (10 µM),inactive: 0,inactive: 0,inactive: 0,inactive: 0,inactive: 0,inactive: 0,inactive: 0,inactive: 0,0,0,0,0,0,0,0,0,0,0,0,0
C/C(=C1/C(=O)Nc2ccc(NC(N)=O)cc21)c1ccc[nH]1 (10 µM),inactive: 0,inactive: 0,inactive: 0,inactive: 0,inactive: 0,inactive: 0,inactive: 0,inactive: 0,0,0,0,0,0,0,0,0,0,0,0,0
CC1=C2C(=O)O[C@@H](c3ccoc3)[C@]2(C)CCC1 [Fraxinellone] (10 µM),inactive: 0,inactive: 0,inactive: 0,inactive: 0,inactive: 0,inactive: 0,inactive: 0,inactive: 0,0,0,0,0,0,0,0,0,0,0,0,0
COc1cc2c[n+](C)c3c4cc5c(cc4ccc3c2cc1OC)OCO5 [Nitidine (chloride)] (2 µM),inactive: 0,inactive: 0,inactive: 0,inactive: 0,inactive: 0,inactive: 0,inactive: 0,inactive: 0,1,0,0,0,0,0,0,0,0,0,0,0
CC(=O)N1CCN(c2cc(-c3cc(C(F)(F)F)c4c(N)ncnn34)ccc2C#N)C(=O)C1(C)C (10 µM),inactive: 0,inactive: 0,inactive: 0,inactive: 0,inactive: 0,inactive: 0,inactive: 0,inactive: 0,0,0,0,0,0,0,0,0,0,0,0,0
Cc1c(CN2CCN(C(=O)[C@H](C)O)CC2)sc2c(N3CCOCC3)nc(-c3cnc(N)nc3)nc12 [Apitolisib] (10 µM),inactive: 0,inactive: 0,inactive: 0,inactive: 0,inactive: 0,inactive: 0,inactive: 0,inactive: 0,5,0,0,0,4,1,0,2,4,2,3,0
Cn1cc(-c2ccc(CNc3cc(-c4cnc5cc(OCCCN6CCCC6)ccn45)ncn3)cc2)cn1 (10 µM),inactive: 0,inactive: 0,inactive: 0,inactive: 0,inactive: 0,inactive: 0,inactive: 0,inactive: 0,0,0,0,0,0,0,0,0,0,0,0,0
Cc1ccc(S(=O)(=O)Nc2ccccc2C=Nc2ccccc2NS(=O)(=O)c2ccc(C)cc2)cc1 (10 µM),inactive: 0,inactive: 0,inactive: 0,inactive: 0,inactive: 0,inactive: 0,inactive: 0,inactive: 0,0,0,0,0,0,0,0,0,0,0,0,0
Fc1ccc(-c2nc(-c3c(F)cccc3F)[nH]c2-c2ccncc2)cc1 (10 µM),inactive: 0,inactive: 0,inactive: 0,inactive: 0,inactive: 0,inactive: 0,inactive: 0,inactive: 0,0,0,0,0,0,0,0,0,0,0,0,0
O=C1c2ccc(Nc3ccc(F)cc3F)cc2CCc2ccc(OC[C@H](O)CO)cc21 [Skepinone-L] (2.5 µM),inactive: 0,inactive: 0,inactive: 0,inactive: 0,inactive: 0,inactive: 0,inactive: 0,inactive: 0,0,0,0,0,0,0,0,0,0,0,0,0
N#Cc1cccc(-c2c[nH]c3ncnc(N4CCOCC4)c23)c1 (10 µM),inactive: 0,inactive: 0,inactive: 0,inactive: 0,inactive: 0,inactive: 0,inactive: 0,inactive: 0,0,0,0,0,0,0,0,0,0,0,0,0
COc1ccc(Cn2cc(C(=O)N=Nc3c(O)[nH]c4c(C)cccc34)nn2)cc1 [MARK4 inhibitor 1] (10 µM),inactive: 0,inactive: 0,inactive: 0,inactive: 0,inactive: 0,inactive: 0,inactive: 0,inactive: 0,0,0,0,0,0,0,0,0,0,0,0,0
CC(C)=CC(=O)CCC(=O)N1CCN(Cc2cc3nc(-c4cccc5[nH]ncc45)nc(N4CCOCC4)c3s2)CC1 (10 µM),inactive: 0,inactive: 0,inactive: 0,inactive: 0,inactive: 0,inactive: 0,inactive: 0,inactive: 0,0,0,0,0,0,0,0,0,4,5,0,0
C[C@@]1(O)CCC[C@H]1n1c(=O)c(C(F)F)cc2cnc(NC3CCN(S(C)(=O)=O)CC3)nc21 (2.5 µM),inactive: 0,inactive: 0,inactive: 0,inactive: 0,inactive: 0,inactive: 0,inactive: 0,inactive: 0,0,0,1,0,3,0,0,0,0,0,1,0

# As a working copy, two of the compounds above.
SMILES,kinase-Nluc reporter destabilization hit call (STK38),kinase-Nluc reporter destabilization hit call (SYK),kinase-Nluc reporter destabilization hit call (TEC),kinase-Nluc reporter destabilization hit call (TYK2),kinase-Nluc reporter destabilization hit call (ULK3),kinase-Nluc reporter destabilization hit call (YES1),kinase-Nluc reporter destabilization hit call (ZAK),kinase-Nluc reporter destabilization hit call (ZAP70),number of time points (ABL1),number of time points (AKT1),number of time points (ALK),number of time points (ARAF),number of time points (AURKA),number of time points (AURKB),number of time points (AURKC),number of time points (BLK),number of time points (BMX),number of time points (BRAF),number of time points (BRAF_V600E),number of time points (BTK)
CC(C)=CC(=O)CCC(=O)N1CCN(Cc2cc3nc(-c4cccc5[nH]ncc45)nc(N4CCOCC4)c3s2)CC1 (10 µM),inactive: 0,inactive: 0,inactive: 0,inactive: 0,inactive: 0,inactive: 0,inactive: 0,inactive: 0,0,0,0,0,0,0,0,0,4,5,0,0
C[C@@]1(O)CCC[C@H]1n1c(=O)c(C(F)F)cc2cnc(NC3CCN(S(C)(=O)=O)CC3)nc21 (2.5 µM),inactive: 0,inactive: 0,inactive: 0,inactive: 0,inactive: 0,inactive: 0,inactive: 0,inactive: 0,0,0,1,0,3,0,0,0,0,0,1,0
